Experimental data taken from PubChem BioAssay AID2685 (National Center for Advancing Translational Sciences (NCATS), 2010).
Among all 320,000 compounds or so, about 2,100 (0.66%) were called active. This list was built around the results that the source calls inconclusive (neither active nor inactive); the mix of calls is not that of the screen. The call rests on the fitted dose curve; in most records, active means well fitted inhibition curve with a large enough effect in the signal ratio, with a control signal flat (not every such curve was filed as active); inconclusive means small, poorly fitted or top-dose-only effect, or effect the other way, or a change in a side signal; inactive means flat fitted curve, though single readings scatter; the % refers to the signal ratio. Potencies of inconclusive entries are doubtful fits and often do not repeat.
On the % scale 0 is the no-effect control and ±100 the full control effect; potency means the concentration at half of the fitted maximal effect.

Experiment: qHTS Assay for Lipid Storage Modulators in Drosophila S3 Cells
Settings: BODIPY lipid droplet fluorescence, 18-24 h, cells fed with added oleic acid; lipid storage change, negative = inhibition: at 46.1 µM (top of the series) unless noted
Summary of the method: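 Drosophila S3 cells loaded with oleic acid (400 uM, as added) and compounds at several concentrations; lipid droplets imaged by 488-nm laser-scanning cytometry, 500–530 nm intensity and object ratio to cell channel. Percent activity normalized to 20 uM Triacsin C.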
With `Cn1nnnc1SCC(=O)N(C1CCCCC1)C1CCS(=O)(=O)C1` (centres undefined) the lipid storage change, negative = inhibition was inconclusive: 43.7%.
For `O=C(Nc1nnc(SCc2cccnc2)s1)C1CC(=O)N(c2ccc(F)cc2)C1` (centres undefined), the Potency was inconclusive: 18.4 µM [activator, single point].
For `COc1cc(C(=O)NCC(=O)NCCCSc2ccccc2)cc(OC)c1OC`, the lipid storage change, negative = inhibition was inconclusive: -2.48%.
In the case of `O=C(/C=C/c1ccccc1)N1CCN(c2cccc(Cl)n2)CC1`, the lipid storage change, negative = inhibition is reported as inconclusive: 14.1%.
In the case of `O=C(Cc1cccc2ccccc12)Nc1ccc(O)cc1C(=O)O`, the Potency is reported as inconclusive: 0.58 µM [activator, single point].
For `Oc1ccc(-c2csc(Nc3ncccn3)n2)c(O)c1`, the lipid storage change, negative = inhibition was inconclusive: -23.5%.
With `COc1ccc(CCNC(=O)C(=O)N2CCCCC2)cc1OC` the “lipid storage change, negative = inhibition” value was inactive: -1.78%.
In the case of `COc1ccc(OC)c(-n2nnnc2SCC(=O)NCCc2ccccc2)c1`, the lipid storage change, negative = inhibition is reported as inconclusive: 12.7%.
In the case of `Cc1nn(C)c(C)c1S(=O)(=O)N1CCCC(C(=O)N2CCN(c3ccccc3)CC2)C1` (centres undefined), the lipid storage change, negative = inhibition is reported as inconclusive: -8.9%.
For `COCCn1c(=O)[nH]c(=O)c2c1nc(-c1cc(Br)c3c(c1)OCO3)n2Cc1ccccc1`, the lipid storage change, negative = inhibition was inconclusive: 8.73%.
With `Cc1ccc(N2CC(NC(=O)C(=O)c3c[nH]c4ccccc34)CC2=O)cc1C` (centres undefined) the “lipid storage change, negative = inhibition” value was inactive: 1.15%.
In the case of `CC(C)CC1Nc2ncnc(N3CCCCC3)c2N(Cc2ccccc2)C1=O` (centres undefined), the lipid storage change, negative = inhibition is reported as inconclusive: 31.6%.
In the case of `COc1cccc(OC)c1C(=O)Nc1ccc(Cc2ccncc2)cc1`, the lipid storage change, negative = inhibition is reported as inconclusive: 10.6%.
With `CCOC(=O)CSC1=C(C#N)C(c2ccco2)C(C(=O)OCc2ccccc2)=C(C)N1` (centres undefined) the Potency was inconclusive: 29.1 µM [falling, single point].
In the case of `CC(=O)c1c(COC(=O)c2cccnc2)nc2ccccc2[n+]1[O-]`, the lipid storage change, negative = inhibition is reported as inconclusive: 25.9%.
With `O=C(O)CNC(=O)c1ccc(N2CCOCC2)cc1[N+](=O)[O-]` the lipid storage change, negative = inhibition was inconclusive: -19.8%.
In the case of `CCN(C(=O)COc1ccc(C)nc1[N+](=O)[O-])C1CCS(=O)(=O)C1` (centres undefined), the Potency is reported as inconclusive: 29.1 µM [rising, single point].
In the case of `COc1cccc(CNS(=O)(=O)c2ccc3c(c2)oc(=O)n3C)c1`, the lipid storage change, negative = inhibition is reported as inconclusive: -34.9%.
With `O=C(NC1CCSc2ccccc21)c1ccc(Cl)c(S(=O)(=O)N2CCOCC2)c1` (centres undefined) the Potency was inconclusive: 3.66 µM [activator, single point].
For `Cc1nnc(SCc2nnc(-c3ccc(Cl)cc3)o2)n1-c1ccccc1`, the lipid storage change, negative = inhibition was inconclusive: -34.8%.
With `C/C(=N\NC(=O)C(=O)Nc1ccc(C)cc1)c1ccncc1` the lipid storage change, negative = inhibition was inconclusive: 39.7%.
For `OCC1(CCOc2ccccc2)CCN(Cc2cc(Cl)ccc2O)CC1`, the lipid storage change, negative = inhibition was inconclusive: 38.9%.
With `COc1ccc(CSC2=CS(=O)(=O)c3ccccc3N2)cc1` the lipid storage change, negative = inhibition was inconclusive: -4.74%.
For `Cc1ccc(C(=O)O/N=C/c2c(C)nn(C)c2Cl)cc1`, the lipid storage change, negative = inhibition was inconclusive: -38.3% [cytotoxic] [at 0.369 µM].
For `O=C(COC(=O)CNC(=O)c1ccccc1)Nc1ccc(S(=O)(=O)N2CCCC2)cc1`, the lipid storage change, negative = inhibition was inconclusive: 63.3%.
With `COc1ccccc1NNC(=O)c1cc(C(C)(C)C)nn1Cc1ccccc1` the “lipid storage change, negative = inhibition” value was inactive: 3.58%.
With `C[C@@]12CCC3[C@@](CCC4[C@@]3(C)CCC[C@@]4(C)C(=O)N3CCCCC3)(CC1=O)C2` (some centres undefined) the lipid storage change, negative = inhibition was inconclusive: 7.71%.
In the case of `Cc1cc2ncn(C3CC(=O)N(Cc4ccc(N5CCCC5=O)cc4)C3=O)c2cc1C` (centres undefined), the lipid storage change, negative = inhibition is reported as inconclusive: 39.8%.
For `C/C(=N/NC(=O)C1CCCN1C(=O)c1ccc([N+](=O)[O-])cc1)c1ccc(Br)cc1` (centres undefined), the Potency was inconclusive: 4.11 µM [activator, partial curve].
For `CCOc1ccc(S(=O)(=O)Nc2cccc(C(=O)NCC(c3ccco3)N3CCCC3)c2)cc1` (centres undefined), the lipid storage change, negative = inhibition was inconclusive: -37.9%.
With `COc1ccc(C2C(C(C)=O)=C(C)Nc3ncnn32)cc1` (centres undefined) the Potency was inconclusive: 5.17 µM [activator, single point].
With `CC1(C)OC(c2ccccc2)=C/C(=C/C=C2C(=O)c3ccccc3C2=O)O1` the Potency was inconclusive: 1.46 µM [cytotoxic, full curve].
For `Cc1onc(-c2ccccc2)c1C(=O)NNC(=O)c1ccccc1`, the lipid storage change, negative = inhibition was inconclusive: 15.1%.
In the case of `CN(c1ccccc1C(=O)NCc1ccco1)S(C)(=O)=O`, the lipid storage change, negative = inhibition is reported as inconclusive: -75.4%.
In the case of `Cc1ccc2c(C)c(C(=O)N(C)C(C)c3ccon3)oc2c1C` (centres undefined), the Potency is reported as inconclusive: 14.6 µM [activator, partial curve].
For `O=C(CCCN1C(=O)c2cccnc2C1=O)N1CC(=O)N(CCc2ccccc2)C(=O)C1`, the lipid storage change, negative = inhibition was inconclusive: -28.3%.
For `Cc1ccc(C(=O)NNC(=O)CSc2nnc(CNc3ccc(F)cc3)n2C)cc1`, the lipid storage change, negative = inhibition was inconclusive: 74.2%.
In the case of `Cc1csc(Nc2nc(N)c(C(=O)Nc3cc(Cl)ccc3F)o2)n1`, the Potency is reported as inconclusive: 0.13 µM [activator, full curve, poor fit].
With `CC(=O)Nc1ccc(Oc2ncccn2)c(Cl)c1` the lipid storage change, negative = inhibition was inconclusive: -43.4%.
With `CCOc1ccc(-n2c(=S)sc3c(=O)n(-c4ccc(F)cc4)c(SCC(=O)O)nc32)cc1` the lipid storage change, negative = inhibition was inconclusive: 72.1%.
For `O=C(C1CCN(Cc2nc(Cc3cccc(F)c3)no2)CC1)N1CCOCC1`, the lipid storage change, negative = inhibition was inconclusive: 25.2%.
For `CCN1CCN(c2nc3sc4c(c3c3ncnn23)CC(C)CC4)CC1` (centres undefined), the Potency was inconclusive: 1.3 µM [falling, full curve].
For `CCN(CC)CCCn1c2c(c(SCC(=O)Nc3cccc(C)c3C)nc1=O)CCC2`, the lipid storage change, negative = inhibition was “inconclusive”.
In the case of `COc1ccc(CCNC(=O)C(=O)Nc2ccc3nc4n(c(=O)c3c2)CCCCC4)cc1OC`, the lipid storage change, negative = inhibition is reported as inconclusive: -9.65%.
For `O=C(Nc1ccccc1Cl)c1ccc2c(c1)N(Cc1ccc(F)cc1)C(=O)CS2=O` (centres undefined), the Potency was inconclusive: 8.2 µM [activator, single point].
With `COc1cc(/C=N/NC(=S)Nc2cccnc2)cc(OC)c1OC` the Potency was inconclusive: 6.51 µM [activator, single point].
With `COc1ccc(-c2nc(-c3ccc(Br)o3)no2)cc1` the lipid storage change, negative = inhibition was inconclusive: -35.2%.
For `COc1ccc(C(=O)NCc2cccnc2)cc1S(=O)(=O)N1CCCc2ccccc21`, the lipid storage change, negative = inhibition was inconclusive: 65%.
For `NS(=O)(=O)c1cc(C(=O)NCC2CCCCC2)ccc1Cl`, the Potency was inconclusive: 16.4 µM [activator, partial curve, poor fit].
